Experimental data published in patent US20240317885A1.
No constants are given. Whether binding was seen depends on the method and setting. Some binding calls cover weakened binding; strength is not graded here.

Experiments:
[1] = molecular target: T1, TIP1 on the surface of human lung cancer cells (A549, H460) (human) (UniProt O14907); assay: flow cytometry on irradiated H460 cells
T1 sequence: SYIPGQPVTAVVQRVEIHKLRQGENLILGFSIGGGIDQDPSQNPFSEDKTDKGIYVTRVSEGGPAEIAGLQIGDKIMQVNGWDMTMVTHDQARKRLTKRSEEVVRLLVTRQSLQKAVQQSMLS

[2] = molecular target: T1, TIP1 on the surface of human lung cancer cells (A549, H460) (human); assay: flow cytometry on A549 and H460 human lung cancer cells (FIG. 13, 14, 15)
[3] = molecular target: T1, TIP1 on the surface of human lung cancer cells (A549, H460) (human); assay: near-infrared imaging of labeled antibody in mice with irradiated and sham A549 / H460 tumors
[4] = molecular target: T2, Tax interacting protein-1 (TIP1), recombinant / purified protein (Homo sapiens (Human)) (UniProt O14907); assay: indirect ELISA on coated recombinant TIP1 protein (FIG. 9A,B)
T2 sequence: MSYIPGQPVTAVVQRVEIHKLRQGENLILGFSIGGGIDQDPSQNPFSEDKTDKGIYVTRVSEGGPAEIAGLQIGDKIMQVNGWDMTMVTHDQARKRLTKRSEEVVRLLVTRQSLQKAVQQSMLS

[5] = molecular target: T1, TIP1 on the surface of human lung cancer cells (A549, H460) (human); assay: flow cytometry concentration curve on H460 and A549 cells
[6] = molecular target: T2, Tax interacting protein-1 (TIP1), recombinant / purified protein (Homo sapiens (Human)); assay: Western blot of total cellular proteins / purified TIP1 probed with the antibody (FIG. 12)
[7] = molecular target: T1, TIP1 on the surface of human lung cancer cells (A549, H460) (human); assay: flow cytometry on irradiated A549 cells
[8] = molecular target: T2, Tax interacting protein-1 (TIP1), recombinant / purified protein (Homo sapiens (Human)); assay: indirect ELISA, three-fold dilutions of expression supernatant on TIP1 protein; KD not calculated

Measured: binding

B1: human IgG1 v111 (antibody, V domains shown)
VH: QMQLVQSGAEVKKPGESLKISCKGSGYSFTSNWIGWVRQMPGKGLEWMGIIYPGDSDTRYSPSFQGQVTISADKSISTAYLQWSSLKASDTAMYYCARQQGHDAFDIWGQGTTVTVSS
VL: SYELTQPPSVSVSPGQTARITCSGDALPKRYAYWYRQKPGQAPVLVIQKDTERPSGIPERFSGSISGTTVTLTISGVQAEDEADYYCQSTDSSASYAVFGGGTKLTVL
not listed: [8]
binds: all other assays above

B2: v111 (affinity-improved variant of scFv-154, before grafting into human IgG1) (scFv, V domains shown)
VH: B1 VH
VL: B1 VL
binds: [8]
